According to patent US20230235078A1 (University of Texas, published 2023):
These are yes or no findings as the source states them, for the method shown. Some binding calls cover weakened binding; strength is not graded here.

T1: mouse DDR1 ECD (mouse, UniProt Q03146 22-415)
T1 construct: extracellular domain; construct not described; also called mouse ECD
T1 sequence (looked up): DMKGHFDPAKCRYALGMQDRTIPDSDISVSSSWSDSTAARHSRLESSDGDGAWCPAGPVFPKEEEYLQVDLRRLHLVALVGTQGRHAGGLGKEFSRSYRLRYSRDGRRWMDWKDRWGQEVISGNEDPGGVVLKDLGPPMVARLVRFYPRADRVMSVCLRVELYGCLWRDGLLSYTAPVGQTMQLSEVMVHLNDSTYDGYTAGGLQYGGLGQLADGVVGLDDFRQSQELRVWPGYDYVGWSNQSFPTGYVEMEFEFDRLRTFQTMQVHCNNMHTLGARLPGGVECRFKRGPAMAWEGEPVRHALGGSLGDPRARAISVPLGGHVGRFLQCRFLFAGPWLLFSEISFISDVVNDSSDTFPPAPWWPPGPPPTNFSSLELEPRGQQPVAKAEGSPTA

B1: DDR1-9 (antibody, V domains shown)
VH: QSLEESGGRLVTPGTPLTLTCTASGFSLNRYYMLWVRQAPGEGLEWIGTISYGDTTYYASWAKGRFTISKTSTTVDLKMTSPTTEDTATYFCARADTGDNGYLGLQLWGPGTLVTVSS
VL: ELVMTQTPASVEAAVGGTVTIKCQASQSIGSVLAWYQQKPGQRPKLLISGVFDLASGVPSRFKGSGSGTEFTLTISDLECADAATYYCQYIPYGSSPFGGGTEVVVK
notes: Rabbit variable domains; also called anti-huDDR1 antibody #9; DDR1-9K/DDR1-9H
B2: DDR1-33 (antibody, V domains shown)
VH: QSVEESGGRLVTPGGSLTLTCTVSGFSLSSYDMSWVRQAPGKGLEWIGISWNSGFVDYASWAKGRFSISKTSTTVDLKITSPTTEDTATYFCARLGADDIYYFNLWGPGTLVTISS
VL: ELVMTQTPASVEAAVGGTVTIKCQASETISSRLAWYQQKPGQPPKLLIYQASKLPSGVPSRFKGTGSGTEYTLTISDLECADAATYYCQGCYYGGGSFYDSAFGGGTEVVVK
notes: Rabbit variable domains; also called anti-huDDR1 #33 antibody; DDR1-33K/DDR1-33H
B3: DDR1-32 (antibody, V domains shown)
VH: QSLEESGGRLVTPGTPLTLTCTASGFSLSSYYMSWVRQAPGEGLEWIGTITTAGPLYYATWAKGRFTISKTSTTVDLKMTGPTTEDTATYFCARGHAGSIYYSYFDLWGPGTLVTVSS
VL: ELVMTQTPASVEAAVGGTVTIKCQASESINSWLAWYQQKPGQRPKLLIYDASKLASGVPSRFKGSGSGTQFTLTISDLECADAATYYCQSYYIINRSNYGNSFGGGTEVEIK

Assays:
mouse DDR1 ECD = target: T1, mouse DDR1 ECD; test: titration ELISA on mouse DDR1
[1] = target: Human DDR1 extracellular domain (ECD) protein (human) (UniProt Q08345); test: ELISA on DDR1, antibody at 10 and 1 µg/ml

| Binder | binding (mouse DDR1 ECD) | binding [1] |
| --- | --- | --- |
| B1 | binds | – |
| B2 | binds | – |
| B3 | – | no binding (tested: 10 µg/ml) |
